Experimental data taken from the supplement of paper PMC12067093, “Discovery and optimisation of a covalent ligand for TRIM25 and its application to targeted protein ubiquitination” (Chemical Science, 2025).
The other results are listed elsewhere or left out.

The chains behind the UniProt entries cited, without tags or fusion partners. Where a name states a change or a piece, a line headed by the entry shows the natural chain unless it says otherwise.
UniProt Q9NYG5, whole entry, looked up: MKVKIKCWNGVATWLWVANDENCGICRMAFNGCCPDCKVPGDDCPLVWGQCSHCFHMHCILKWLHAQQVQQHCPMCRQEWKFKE
UniProt Q99996, whole entry, looked up: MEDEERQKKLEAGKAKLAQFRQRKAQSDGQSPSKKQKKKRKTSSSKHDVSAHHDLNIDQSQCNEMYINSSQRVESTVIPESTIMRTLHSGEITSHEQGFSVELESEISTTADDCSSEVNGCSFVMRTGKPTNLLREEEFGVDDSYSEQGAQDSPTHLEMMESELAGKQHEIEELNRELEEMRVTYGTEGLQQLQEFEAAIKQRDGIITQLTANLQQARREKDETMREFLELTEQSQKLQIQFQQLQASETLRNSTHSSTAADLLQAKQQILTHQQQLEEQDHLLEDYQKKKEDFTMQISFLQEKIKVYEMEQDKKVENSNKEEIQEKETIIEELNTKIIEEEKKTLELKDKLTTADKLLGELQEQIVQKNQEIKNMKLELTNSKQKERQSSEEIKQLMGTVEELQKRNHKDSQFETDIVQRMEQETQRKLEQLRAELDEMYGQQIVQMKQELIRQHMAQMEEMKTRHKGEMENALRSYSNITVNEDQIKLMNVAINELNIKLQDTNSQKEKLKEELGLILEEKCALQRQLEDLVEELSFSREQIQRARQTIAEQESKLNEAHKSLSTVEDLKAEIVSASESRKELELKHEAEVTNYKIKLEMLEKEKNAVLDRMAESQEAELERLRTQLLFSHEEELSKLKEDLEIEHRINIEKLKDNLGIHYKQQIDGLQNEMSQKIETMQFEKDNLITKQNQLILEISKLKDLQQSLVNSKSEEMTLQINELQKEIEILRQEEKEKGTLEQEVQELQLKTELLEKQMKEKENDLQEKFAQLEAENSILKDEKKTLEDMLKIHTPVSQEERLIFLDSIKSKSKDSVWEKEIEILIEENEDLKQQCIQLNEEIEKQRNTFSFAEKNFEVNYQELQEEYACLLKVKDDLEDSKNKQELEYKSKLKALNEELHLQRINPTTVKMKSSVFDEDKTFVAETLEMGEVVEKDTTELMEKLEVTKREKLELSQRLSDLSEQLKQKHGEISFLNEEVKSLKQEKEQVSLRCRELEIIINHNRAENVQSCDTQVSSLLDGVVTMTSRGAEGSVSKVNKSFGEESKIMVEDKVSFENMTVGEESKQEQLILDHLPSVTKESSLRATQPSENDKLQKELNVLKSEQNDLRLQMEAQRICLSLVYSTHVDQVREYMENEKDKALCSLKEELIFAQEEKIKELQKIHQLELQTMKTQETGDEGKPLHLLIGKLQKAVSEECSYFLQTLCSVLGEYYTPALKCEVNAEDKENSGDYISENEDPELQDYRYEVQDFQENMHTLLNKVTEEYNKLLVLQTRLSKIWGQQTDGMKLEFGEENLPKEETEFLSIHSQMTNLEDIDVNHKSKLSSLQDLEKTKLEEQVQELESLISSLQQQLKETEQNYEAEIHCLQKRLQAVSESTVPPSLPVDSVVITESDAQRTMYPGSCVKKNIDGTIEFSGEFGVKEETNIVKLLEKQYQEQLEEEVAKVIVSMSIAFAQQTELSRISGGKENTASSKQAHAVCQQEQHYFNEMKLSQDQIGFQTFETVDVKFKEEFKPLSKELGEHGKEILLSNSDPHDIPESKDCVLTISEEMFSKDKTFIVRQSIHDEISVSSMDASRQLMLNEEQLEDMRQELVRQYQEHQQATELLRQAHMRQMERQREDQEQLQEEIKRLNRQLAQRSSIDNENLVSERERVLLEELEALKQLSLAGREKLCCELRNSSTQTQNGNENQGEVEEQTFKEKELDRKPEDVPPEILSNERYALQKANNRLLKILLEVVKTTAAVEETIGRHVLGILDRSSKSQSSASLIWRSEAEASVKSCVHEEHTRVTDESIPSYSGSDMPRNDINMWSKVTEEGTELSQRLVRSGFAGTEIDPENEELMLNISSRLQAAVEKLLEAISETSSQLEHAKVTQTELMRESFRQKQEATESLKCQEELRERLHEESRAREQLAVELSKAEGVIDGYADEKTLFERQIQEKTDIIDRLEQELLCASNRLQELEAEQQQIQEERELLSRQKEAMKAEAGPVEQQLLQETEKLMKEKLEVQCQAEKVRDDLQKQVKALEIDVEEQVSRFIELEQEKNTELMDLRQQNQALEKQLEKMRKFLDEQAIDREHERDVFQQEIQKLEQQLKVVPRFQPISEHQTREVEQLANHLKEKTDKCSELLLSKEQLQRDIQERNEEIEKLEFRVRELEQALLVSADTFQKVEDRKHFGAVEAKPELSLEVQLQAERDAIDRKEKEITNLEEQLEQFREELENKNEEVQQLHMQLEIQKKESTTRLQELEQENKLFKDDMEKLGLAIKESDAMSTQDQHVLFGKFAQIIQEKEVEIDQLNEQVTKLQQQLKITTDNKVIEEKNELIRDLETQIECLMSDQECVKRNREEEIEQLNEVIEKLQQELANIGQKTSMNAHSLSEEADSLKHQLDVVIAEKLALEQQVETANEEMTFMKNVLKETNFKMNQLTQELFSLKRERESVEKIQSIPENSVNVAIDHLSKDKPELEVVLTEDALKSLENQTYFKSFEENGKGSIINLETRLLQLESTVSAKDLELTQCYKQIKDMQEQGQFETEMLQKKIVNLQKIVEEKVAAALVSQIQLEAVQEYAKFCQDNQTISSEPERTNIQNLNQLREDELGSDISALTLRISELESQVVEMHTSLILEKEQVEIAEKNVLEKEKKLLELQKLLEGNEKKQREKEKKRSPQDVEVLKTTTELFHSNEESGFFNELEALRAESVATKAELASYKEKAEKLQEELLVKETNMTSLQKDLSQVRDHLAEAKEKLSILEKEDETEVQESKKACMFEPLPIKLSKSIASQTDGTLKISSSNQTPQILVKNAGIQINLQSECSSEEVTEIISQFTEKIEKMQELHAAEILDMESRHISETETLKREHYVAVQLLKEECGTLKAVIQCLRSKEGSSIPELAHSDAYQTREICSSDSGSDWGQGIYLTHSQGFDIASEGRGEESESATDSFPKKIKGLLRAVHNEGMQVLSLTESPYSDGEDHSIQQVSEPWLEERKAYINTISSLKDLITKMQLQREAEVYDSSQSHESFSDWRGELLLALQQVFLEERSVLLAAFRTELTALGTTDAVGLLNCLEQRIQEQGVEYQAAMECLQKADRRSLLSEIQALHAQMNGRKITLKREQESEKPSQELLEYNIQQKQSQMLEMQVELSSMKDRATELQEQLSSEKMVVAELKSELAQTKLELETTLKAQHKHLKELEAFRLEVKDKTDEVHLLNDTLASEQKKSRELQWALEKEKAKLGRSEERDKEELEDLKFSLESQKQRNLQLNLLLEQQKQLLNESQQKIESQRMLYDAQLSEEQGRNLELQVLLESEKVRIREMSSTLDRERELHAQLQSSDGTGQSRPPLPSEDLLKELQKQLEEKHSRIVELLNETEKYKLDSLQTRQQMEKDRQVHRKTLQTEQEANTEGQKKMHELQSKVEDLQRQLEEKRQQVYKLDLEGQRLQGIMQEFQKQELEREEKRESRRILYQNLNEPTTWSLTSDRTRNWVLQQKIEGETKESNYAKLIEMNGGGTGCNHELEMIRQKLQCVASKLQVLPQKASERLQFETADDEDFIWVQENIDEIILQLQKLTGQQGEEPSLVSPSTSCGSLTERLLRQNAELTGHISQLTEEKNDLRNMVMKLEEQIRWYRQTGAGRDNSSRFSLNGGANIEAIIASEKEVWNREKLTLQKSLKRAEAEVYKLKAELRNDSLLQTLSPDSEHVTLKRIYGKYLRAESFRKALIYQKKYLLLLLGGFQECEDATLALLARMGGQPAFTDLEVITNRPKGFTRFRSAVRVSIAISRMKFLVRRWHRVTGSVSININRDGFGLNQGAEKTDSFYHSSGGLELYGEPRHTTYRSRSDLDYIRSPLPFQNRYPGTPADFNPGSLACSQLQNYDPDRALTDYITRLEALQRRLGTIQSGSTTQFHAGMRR
UniProt P54886: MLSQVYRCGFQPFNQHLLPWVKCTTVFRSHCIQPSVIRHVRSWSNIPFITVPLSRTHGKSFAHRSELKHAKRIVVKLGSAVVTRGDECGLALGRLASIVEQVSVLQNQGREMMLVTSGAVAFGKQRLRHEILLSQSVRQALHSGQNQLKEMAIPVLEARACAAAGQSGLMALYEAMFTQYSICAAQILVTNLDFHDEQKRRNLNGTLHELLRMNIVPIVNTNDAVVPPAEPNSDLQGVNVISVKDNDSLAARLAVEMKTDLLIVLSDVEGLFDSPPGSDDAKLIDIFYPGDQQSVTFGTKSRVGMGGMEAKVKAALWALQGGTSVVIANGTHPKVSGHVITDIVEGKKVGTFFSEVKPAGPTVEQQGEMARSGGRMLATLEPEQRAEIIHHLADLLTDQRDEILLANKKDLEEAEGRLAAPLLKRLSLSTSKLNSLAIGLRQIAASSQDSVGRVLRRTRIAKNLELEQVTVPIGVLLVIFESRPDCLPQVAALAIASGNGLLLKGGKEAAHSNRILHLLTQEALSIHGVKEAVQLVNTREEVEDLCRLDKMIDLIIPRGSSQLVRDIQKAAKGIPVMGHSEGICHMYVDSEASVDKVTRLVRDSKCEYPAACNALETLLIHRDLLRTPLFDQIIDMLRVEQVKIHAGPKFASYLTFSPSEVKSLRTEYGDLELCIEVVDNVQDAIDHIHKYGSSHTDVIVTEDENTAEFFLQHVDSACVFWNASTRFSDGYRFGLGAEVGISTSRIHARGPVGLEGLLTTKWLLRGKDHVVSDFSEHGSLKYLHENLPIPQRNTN
UniProt Q9P2R3: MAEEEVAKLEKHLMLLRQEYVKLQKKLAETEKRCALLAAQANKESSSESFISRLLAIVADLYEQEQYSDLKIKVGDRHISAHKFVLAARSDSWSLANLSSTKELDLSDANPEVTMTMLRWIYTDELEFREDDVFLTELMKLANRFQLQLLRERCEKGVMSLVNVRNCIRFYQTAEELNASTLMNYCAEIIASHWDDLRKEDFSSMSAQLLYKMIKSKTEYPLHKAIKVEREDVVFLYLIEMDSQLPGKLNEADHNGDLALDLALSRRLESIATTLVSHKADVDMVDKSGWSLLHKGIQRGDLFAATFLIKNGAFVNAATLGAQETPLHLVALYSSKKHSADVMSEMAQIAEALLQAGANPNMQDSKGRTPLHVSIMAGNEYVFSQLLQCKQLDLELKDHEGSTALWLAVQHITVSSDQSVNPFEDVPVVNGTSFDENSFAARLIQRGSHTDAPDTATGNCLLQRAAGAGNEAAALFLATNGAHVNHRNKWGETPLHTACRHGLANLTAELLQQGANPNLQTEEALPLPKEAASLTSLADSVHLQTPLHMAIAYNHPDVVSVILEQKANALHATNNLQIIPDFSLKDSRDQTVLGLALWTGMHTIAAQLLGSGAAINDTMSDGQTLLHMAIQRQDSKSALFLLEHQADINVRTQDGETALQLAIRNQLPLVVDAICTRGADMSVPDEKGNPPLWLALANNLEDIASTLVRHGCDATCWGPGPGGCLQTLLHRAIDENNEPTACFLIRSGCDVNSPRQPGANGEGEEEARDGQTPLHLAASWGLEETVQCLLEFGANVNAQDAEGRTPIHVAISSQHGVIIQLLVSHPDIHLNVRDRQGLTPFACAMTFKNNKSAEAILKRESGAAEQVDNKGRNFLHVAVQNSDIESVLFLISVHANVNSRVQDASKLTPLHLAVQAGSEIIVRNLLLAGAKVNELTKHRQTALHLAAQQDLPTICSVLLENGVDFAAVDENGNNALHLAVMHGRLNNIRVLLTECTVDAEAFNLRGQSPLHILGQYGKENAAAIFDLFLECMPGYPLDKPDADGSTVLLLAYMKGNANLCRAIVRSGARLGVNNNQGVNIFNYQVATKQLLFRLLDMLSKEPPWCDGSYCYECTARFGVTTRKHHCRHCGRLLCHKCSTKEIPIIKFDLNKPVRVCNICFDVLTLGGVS
UniProt O43488: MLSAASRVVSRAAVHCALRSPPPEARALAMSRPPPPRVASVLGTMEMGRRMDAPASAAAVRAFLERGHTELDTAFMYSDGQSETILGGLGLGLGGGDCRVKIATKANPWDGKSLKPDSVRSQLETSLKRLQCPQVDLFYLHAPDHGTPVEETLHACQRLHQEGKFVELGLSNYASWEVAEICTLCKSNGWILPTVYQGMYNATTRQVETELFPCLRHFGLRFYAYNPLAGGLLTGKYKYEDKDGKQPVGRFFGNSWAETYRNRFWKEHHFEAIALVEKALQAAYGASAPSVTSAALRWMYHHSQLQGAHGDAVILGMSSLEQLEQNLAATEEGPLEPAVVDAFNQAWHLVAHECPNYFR

Compound: CC1Cc2ccccc2N1C(=O)C1CCCN(C1)C(=O)CCl (mixture of isomers) [TRIM25 ligand 11 (diastereomer mixture)]
Assay: probe-labelled cysteine peptide fold change vs DMSO (competition) (log2 fold change); higher = less target engagement (more negative = stronger competition)
Settings: THP-1, incubation time: 4 h
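Note: competitive chemoproteomic profiling in live THP-1 cells with an iodoacetamide desthiobiotin (IA-DTB) probe, comparing probe-labelled peptide intensities in compound-treated cells against DMSO-treated controls.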

Target	probe-labelled cysteine peptide fold change (10 µM)	probe-labelled cysteine peptide fold change (50 µM)
ALDOB_P05062_240_ALNDHHVYLEGTLLKPNMVTAGHACTK (UniProt P05062)	0.409	0.274
ANAPC11_Q9NYG5_54_VPGDDCPLVWGQCSHCFHMHCILK (UniProt Q9NYG5)	0.235	0.153
AKAP9_Q99996_3063_TELTALGTTDAVGLLNCLEQR (UniProt Q99996)	-0.00678	-0.0745
ALDH16A1_Q8IZ83_249_VAFCGAPEEGR (UniProt Q8IZ83)	-0.187	0.136
ALDH18A1_P54886_606+612_CEYPAACNALETLLIHR (UniProt P54886)	-0.0162	0.0659
ANKFY1_Q9P2R3_34_CALLAAQANK (UniProt Q9P2R3)	0.0634	0.0391
AKR1B1_P15121_299_VCALLSCTSHK (UniProt P15121)	0.129	-0.0125
AKAP1_Q92667_389_EESCVPVHQK (UniProt Q92667)	0.00574	0.0244
AKAP9_Q99996_2333+2340_DLETQIECLMSDQECVK (UniProt Q99996)	0.226	-0.234
AIP_O00170_122_HCCGVAQMR (UniProt O00170)	-0.0346	-0.238
ALDH9A1_P49189_355_VLCGGDIYVPEDPK (UniProt P49189)	-0.168	0.0484
AKR7A2_O43488_156_LQCPQVDLFYLHAPDHGTPVEETLHACQR (UniProt O43488)	0.275	0.266
AGO1_Q9UL18_304_RPASHQTFPLQLESGQTVECTVAQYFK (UniProt Q9UL18)	0.0201	0.0277
ALKBH8_Q96BT7_296_YLWTHGITCR (UniProt Q96BT7)	0.0454	-0.000544
ANAPC2_Q9UJX6_421_VLDPSMVILEVACEPIRR (UniProt Q9UJX6)	0.159	-0.011
ALDH18A1_P54886_584_GIPVMGHSEGICHMYVDSEASVDK (UniProt P54886)	-0.157	-0.177
